In doi:10.1101/2021.03.17.435899:
No constants are given. Whether binding was seen depends on the method and setting. Binding seen in cells or lysates may run through a third protein. Some results given as binding are weak or reduced against the parent protein; the word gives no strength. Tags and fused reporters may be left off the sequences shown.

By UniProt entry, the sequences of proteins in these tests, tags left out.
UniProt Q38912: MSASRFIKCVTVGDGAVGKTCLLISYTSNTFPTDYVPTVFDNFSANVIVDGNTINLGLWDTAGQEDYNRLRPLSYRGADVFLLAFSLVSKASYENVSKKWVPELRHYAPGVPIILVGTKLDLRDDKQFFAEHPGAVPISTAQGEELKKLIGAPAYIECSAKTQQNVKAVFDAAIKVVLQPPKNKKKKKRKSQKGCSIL

Target: T1, MBP-RIC1 (Arabidopsis) (UniProt F4IVV0)
T1 sequence: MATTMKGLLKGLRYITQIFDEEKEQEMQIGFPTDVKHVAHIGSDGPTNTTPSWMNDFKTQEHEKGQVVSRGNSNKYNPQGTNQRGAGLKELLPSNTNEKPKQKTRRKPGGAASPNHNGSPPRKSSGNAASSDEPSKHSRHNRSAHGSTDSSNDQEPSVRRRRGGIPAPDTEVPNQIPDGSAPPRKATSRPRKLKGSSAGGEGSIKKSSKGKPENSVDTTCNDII
Assay: pull-down

binding	Substance
binds	GFP-ROP6 (from UniProt Q38912 1-198)
binds	ROP6 (from UniProt Q38912 1-198)
